Results deposited as PubChem BioAssay AID1159578 (Peter MacCallum Cancer Centre, 2015)
This is one part, drawn at random, of about 18,000 reagents tested. Over the whole deposit, about 1,030 (5.7%) are marked active. 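Inactive calls also include pools with fewer than 3300 nuclei, whose migration was not assessed.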 The raw values are shown without normalisation. The numbers tell different reagents against one gene apart. Not all columns of the deposit are shown. No sequences are given here.

Assay: 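Knock-downs that alter how fast lymphatic endothelial cells migrate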 (primary screen)
System: human lymphatic endothelial cells
Knock-down reagent: siRNA pool against human genes, 40 nM
Duration: 48 h after transfection
Measured: 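Cells stained with dye and imaged after a scratch; covered wound area and nuclei counted, duplicates averaged, migration set against mock wells and turned into a robust z-score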
Reading the numbers: migration robust z-score: higher = faster migration into the scratch; nuclei per well: higher = more cells in the well
Active means: 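Pools averaging fewer than 3300 nuclei are never called; remaining pools count as changed when migration robust z lies outside -2 to 2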
Calls: active = migration changed; inactive = no migration change, or too few cells

With POFUT1 (GeneID 23509), what was measured?
migration robust z-score: 0.08; nuclei per well, duplicate mean: 6582; Outcome: inactive

With CDC42EP3 (GeneID 10602), what does the deposit list?
migration robust z-score: -1.67; nuclei per well, duplicate mean: 5594; Outcome: inactive

Which result is listed for SPACA1 (GeneID 81833)?
migration robust z-score: -0.6; nuclei per well, duplicate mean: 5719; Outcome: inactive

How did the screen score AGAP4 (GeneID 119016) #1?
migration robust z-score: -0.17; nuclei per well, duplicate mean: 7134; Outcome: inactive

With AGAP4 (GeneID 119016) #2, what does the deposit list?
migration robust z-score: 0.3; nuclei per well, duplicate mean: 7012; Outcome: inactive

With NRDE2 (GeneID 55051), what was measured?
migration robust z-score: -0.44; nuclei per well, duplicate mean: 5550; Outcome: inactive

For MLLT6 (GeneID 4302), what does the deposit list?
migration robust z-score: 0.08; nuclei per well, duplicate mean: 4334; Outcome: inactive

What is on record for PPP1R1B (GeneID 84152)?
migration robust z-score: -0.08; nuclei per well, duplicate mean: 5802; Outcome: inactive

What is on record for RASSF9 (GeneID 9182)?
migration robust z-score: -0.84; nuclei per well, duplicate mean: 5533; Outcome: inactive

How did the screen score TTC39C (GeneID 125488)?
migration robust z-score: -0.12; nuclei per well, duplicate mean: 5812; Outcome: inactive

For SLC12A7 (GeneID 10723), what was measured?
migration robust z-score: -2.02; nuclei per well, duplicate mean: 4876; Outcome: active

How did the screen score SSR4 (GeneID 6748)?
migration robust z-score: -0.24; nuclei per well, duplicate mean: 4920; Outcome: inactive

For ABTB3 (GeneID 121551), what does the deposit list?
migration robust z-score: -0.82; nuclei per well, duplicate mean: 5802; Outcome: inactive

How did the screen score URGCP (GeneID 55665)?
migration robust z-score: -0.55; nuclei per well, duplicate mean: 5987; Outcome: inactive

Which result is listed for SCAF8 (GeneID 22828)?
migration robust z-score: 0.25; nuclei per well, duplicate mean: 6050; Outcome: inactive

With CIMAP2 (GeneID 163747), what was measured?
migration robust z-score: -0.38; nuclei per well, duplicate mean: 5682; Outcome: inactive

Which result is listed for FCHO2 (GeneID 115548)?
migration robust z-score: 0.04; nuclei per well, duplicate mean: 7121; Outcome: inactive

For ZNF592 (GeneID 9640), what does the deposit list?
migration robust z-score: -1.25; nuclei per well, duplicate mean: 4748; Outcome: inactive

What did the screen give for SLC2A4RG (GeneID 56731)?
migration robust z-score: -0.76; nuclei per well, duplicate mean: 4020; Outcome: inactive

How did the screen score ZSWIM7 (GeneID 125150)?
migration robust z-score: -0.16; nuclei per well, duplicate mean: 5878; Outcome: inactive

How did the screen score YLPM1 (GeneID 56252)?
migration robust z-score: 1.58; nuclei per well, duplicate mean: 6539; Outcome: inactive
